Values from PubChem BioAssay AID743121 (NCATS, 2013).
Assay: 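Genes whose silencing strengthens cell killing by camptothecin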 (primary screen). Cell system: MDA-MB-231 cells, a human breast cancer line. Knock-down reagent: single siRNA against human genes, 20 nM siRNA (0.8 pmol per well). Time to read-out: 120 h (drug added 48 h after transfection, read 72 h later). Challenge: camptothecin 20 nM (about EC30) for 72 h; vehicle 0.1% DMSO in parallel plates. Measured: 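Cell viability by ATP luminescence (CellTiter-Glo) as % of non-targeting siRNA wells, and the log2 ratio of viability without drug over viability with camptothecin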. Scale: log2 vehicle/camptothecin viability: higher = stronger sensitisation to camptothecin; viability with camptothecin and viability without drug: higher = more viable cells. Active means: 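Each gene scored by redundant siRNA activity (RSA) over its individual siRNA ratios; a gene is called active at p < 0.001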.
In all, the deposit lists about 26,000 reagents; this is a part drawn at random. 167 of them (0.63%) count as active. 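Calls are per gene from RSA p-values that are not deposited; an individual active-marked siRNA can sensitise only weakly.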 Reagent sequences are not shown.

Target gene | PubChem SID | log2 vehicle/camptothecin viability | viability with camptothecin (% of control) | viability without drug (% of control) | outcome
PCSK7 (proprotein convertase subtilisin/kexin type 7) | SID164402149 | -0.0921 | 108 | 102 | inactive
PCSK7 (proprotein convertase subtilisin/kexin type 7) | SID164402151 | -0.493 | 12.5 | 8.86 | inactive
PCSK7 (proprotein convertase subtilisin/kexin type 7) | SID164402152 | -0.107 | 54 | 50.2 | inactive
CD5 (CD5 molecule) | SID164357077 | 0.174 | 13.9 | 15.7 | inactive
CD5 (CD5 molecule) | SID164357078 | 0.0309 | 56.2 | 57.4 | inactive
CD5 (CD5 molecule) | SID164357079 | -0.0163 | 52.7 | 52.1 | inactive
CD5 (CD5 molecule) | SID164357080 | -0.17 | 105 | 93.2 | inactive
MEX3C (mex-3 RNA binding family member C) | SID164473345 | -0.414 | 97.8 | 73.4 | inactive
MEX3C (mex-3 RNA binding family member C) | SID164473346 | -0.0724 | 99.4 | 94.5 | inactive
MEX3C (mex-3 RNA binding family member C) | SID164473349 | -0.059 | 92.5 | 88.8 | inactive
MEX3C (mex-3 RNA binding family member C) | SID164473351 | -0.11 | 109 | 101 | inactive
CAMKV (CaM kinase like vesicle associated) | SID164530080 | -0.37 | 70.2 | 54.3 | inactive
CAMKV (CaM kinase like vesicle associated) | SID164530081 | -0.345 | 129 | 101 | inactive
CAMKV (CaM kinase like vesicle associated) | SID164530082 | -0.522 | 42.6 | 29.7 | inactive
CAMKV (CaM kinase like vesicle associated) | SID164530083 | -0.366 | 76.6 | 59.5 | inactive
JAK3 (Janus kinase 3) | SID164372206 | -0.248 | 84.2 | 71 | inactive
JAK3 (Janus kinase 3) | SID164372209 | -0.649 | 82.6 | 52.7 | inactive
JAK3 (Janus kinase 3) | SID164372211 | -0.254 | 104 | 86.8 | inactive
JAK3 (Janus kinase 3) | SID164372212 | -0.446 | 94.5 | 69.4 | inactive
NRBF2 (nuclear receptor binding factor 2) | SID164468889 | 0.152 | 87.2 | 96.9 | inactive
NRBF2 (nuclear receptor binding factor 2) | SID164468890 | 0.0274 | 98.6 | 100 | inactive
NRBF2 (nuclear receptor binding factor 2) | SID164468896 | -0.305 | 74.5 | 60.3 | inactive
OSGEPL1 (O-sialoglycoprotein endopeptidase like 1) | SID164501536 | -0.149 | 47.2 | 42.6 | inactive
OSGEPL1 (O-sialoglycoprotein endopeptidase like 1) | SID164501537 | -0.289 | 87.1 | 71.3 | inactive
OSGEPL1 (O-sialoglycoprotein endopeptidase like 1) | SID164501538 | -0.068 | 98.9 | 94.4 | inactive
OSGEPL1 (O-sialoglycoprotein endopeptidase like 1) | SID164501539 | -0.184 | 67.1 | 59.1 | inactive
PLAAT1 (phospholipase A and acyltransferase 1) | SID164492724 | -0.347 | 81.6 | 64.2 | inactive
PLAAT1 (phospholipase A and acyltransferase 1) | SID164492725 | -0.485 | 112 | 80.3 | inactive
PLAAT1 (phospholipase A and acyltransferase 1) | SID164492726 | -0.244 | 103 | 86.8 | inactive
PLAAT1 (phospholipase A and acyltransferase 1) | SID164492727 | -0.653 | 108 | 68.9 | inactive
CETN3 (centrin 3) | SID164358069 | -0.203 | 109 | 95 | inactive
CETN3 (centrin 3) | SID164358070 | -0.0113 | 95.1 | 94.4 | inactive
CETN3 (centrin 3) | SID164358073 | -0.297 | 137 | 111 | inactive
CETN3 (centrin 3) | SID164358078 | 0.302 | 71 | 87.5 | inactive
STRADB (STE20 related adaptor beta) | SID164484822 | -0.0946 | 95.5 | 89.4 | inactive
STRADB (STE20 related adaptor beta) | SID164484825 | -0.323 | 68.2 | 54.6 | inactive
STRADB (STE20 related adaptor beta) | SID164484826 | -0.055 | 41.2 | 39.7 | inactive
STRADB (STE20 related adaptor beta) | SID164484830 | -0.239 | 98.5 | 83.5 | inactive
ADGRV1 (adhesion G protein-coupled receptor V1) | SID164542797 | -0.192 | 80.3 | 70.3 | inactive
ADGRV1 (adhesion G protein-coupled receptor V1) | SID164542798 | 0.0792 | 86.2 | 91.1 | inactive
ADGRV1 (adhesion G protein-coupled receptor V1) | SID164542799 | -0.0258 | 88.1 | 86.5 | inactive
ADGRV1 (adhesion G protein-coupled receptor V1) | SID164542800 | -0.16 | 106 | 94.7 | inactive
BRSK2 (BR serine/threonine kinase 2) | SID164401198 | -0.0855 | 96.4 | 90.9 | inactive
BRSK2 (BR serine/threonine kinase 2) | SID164401201 | -0.335 | 42.6 | 33.7 | inactive
BRSK2 (BR serine/threonine kinase 2) | SID164401202 | -0.507 | 59.9 | 42.2 | inactive
BRSK2 (BR serine/threonine kinase 2) | SID164401203 | -0.571 | 94.3 | 63.5 | inactive

Individual results from the list:
Under “outcome”, CETN3 (centrin 3) [SID164358069] is entered as inactive
For “log2 vehicle/camptothecin viability”, ADGRV1 (adhesion G protein-coupled receptor V1) [SID164542798] shows 0.0792
For “outcome”, ADGRV1 (adhesion G protein-coupled receptor V1) [SID164542800] has inactive
For “log2 vehicle/camptothecin viability”, OSGEPL1 (O-sialoglycoprotein endopeptidase like 1) [SID164501537] reads -0.289
Value of CAMKV (CaM kinase like vesicle associated) [SID164530083] under “viability without drug (% of control)”: 59.5
Under “outcome”, CAMKV (CaM kinase like vesicle associated) [SID164530081] reads inactive
